Measured values as given in paper PMC13507320, “Synergistic effect of PIP2 and PIP3 on membrane-induced phase separation of integrin complexes” (Biophysical Journal, 2025).
These are yes or no findings as the source states them, for the method shown. Some entries that bind do so weakly or less than the wild type.

Amino acid sequences for entries named in this document (tags omitted). Residues count along the entry.
UniProt P05556, residues 752-798: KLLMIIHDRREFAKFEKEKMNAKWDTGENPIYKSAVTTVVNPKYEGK
UniProt Q9Y490: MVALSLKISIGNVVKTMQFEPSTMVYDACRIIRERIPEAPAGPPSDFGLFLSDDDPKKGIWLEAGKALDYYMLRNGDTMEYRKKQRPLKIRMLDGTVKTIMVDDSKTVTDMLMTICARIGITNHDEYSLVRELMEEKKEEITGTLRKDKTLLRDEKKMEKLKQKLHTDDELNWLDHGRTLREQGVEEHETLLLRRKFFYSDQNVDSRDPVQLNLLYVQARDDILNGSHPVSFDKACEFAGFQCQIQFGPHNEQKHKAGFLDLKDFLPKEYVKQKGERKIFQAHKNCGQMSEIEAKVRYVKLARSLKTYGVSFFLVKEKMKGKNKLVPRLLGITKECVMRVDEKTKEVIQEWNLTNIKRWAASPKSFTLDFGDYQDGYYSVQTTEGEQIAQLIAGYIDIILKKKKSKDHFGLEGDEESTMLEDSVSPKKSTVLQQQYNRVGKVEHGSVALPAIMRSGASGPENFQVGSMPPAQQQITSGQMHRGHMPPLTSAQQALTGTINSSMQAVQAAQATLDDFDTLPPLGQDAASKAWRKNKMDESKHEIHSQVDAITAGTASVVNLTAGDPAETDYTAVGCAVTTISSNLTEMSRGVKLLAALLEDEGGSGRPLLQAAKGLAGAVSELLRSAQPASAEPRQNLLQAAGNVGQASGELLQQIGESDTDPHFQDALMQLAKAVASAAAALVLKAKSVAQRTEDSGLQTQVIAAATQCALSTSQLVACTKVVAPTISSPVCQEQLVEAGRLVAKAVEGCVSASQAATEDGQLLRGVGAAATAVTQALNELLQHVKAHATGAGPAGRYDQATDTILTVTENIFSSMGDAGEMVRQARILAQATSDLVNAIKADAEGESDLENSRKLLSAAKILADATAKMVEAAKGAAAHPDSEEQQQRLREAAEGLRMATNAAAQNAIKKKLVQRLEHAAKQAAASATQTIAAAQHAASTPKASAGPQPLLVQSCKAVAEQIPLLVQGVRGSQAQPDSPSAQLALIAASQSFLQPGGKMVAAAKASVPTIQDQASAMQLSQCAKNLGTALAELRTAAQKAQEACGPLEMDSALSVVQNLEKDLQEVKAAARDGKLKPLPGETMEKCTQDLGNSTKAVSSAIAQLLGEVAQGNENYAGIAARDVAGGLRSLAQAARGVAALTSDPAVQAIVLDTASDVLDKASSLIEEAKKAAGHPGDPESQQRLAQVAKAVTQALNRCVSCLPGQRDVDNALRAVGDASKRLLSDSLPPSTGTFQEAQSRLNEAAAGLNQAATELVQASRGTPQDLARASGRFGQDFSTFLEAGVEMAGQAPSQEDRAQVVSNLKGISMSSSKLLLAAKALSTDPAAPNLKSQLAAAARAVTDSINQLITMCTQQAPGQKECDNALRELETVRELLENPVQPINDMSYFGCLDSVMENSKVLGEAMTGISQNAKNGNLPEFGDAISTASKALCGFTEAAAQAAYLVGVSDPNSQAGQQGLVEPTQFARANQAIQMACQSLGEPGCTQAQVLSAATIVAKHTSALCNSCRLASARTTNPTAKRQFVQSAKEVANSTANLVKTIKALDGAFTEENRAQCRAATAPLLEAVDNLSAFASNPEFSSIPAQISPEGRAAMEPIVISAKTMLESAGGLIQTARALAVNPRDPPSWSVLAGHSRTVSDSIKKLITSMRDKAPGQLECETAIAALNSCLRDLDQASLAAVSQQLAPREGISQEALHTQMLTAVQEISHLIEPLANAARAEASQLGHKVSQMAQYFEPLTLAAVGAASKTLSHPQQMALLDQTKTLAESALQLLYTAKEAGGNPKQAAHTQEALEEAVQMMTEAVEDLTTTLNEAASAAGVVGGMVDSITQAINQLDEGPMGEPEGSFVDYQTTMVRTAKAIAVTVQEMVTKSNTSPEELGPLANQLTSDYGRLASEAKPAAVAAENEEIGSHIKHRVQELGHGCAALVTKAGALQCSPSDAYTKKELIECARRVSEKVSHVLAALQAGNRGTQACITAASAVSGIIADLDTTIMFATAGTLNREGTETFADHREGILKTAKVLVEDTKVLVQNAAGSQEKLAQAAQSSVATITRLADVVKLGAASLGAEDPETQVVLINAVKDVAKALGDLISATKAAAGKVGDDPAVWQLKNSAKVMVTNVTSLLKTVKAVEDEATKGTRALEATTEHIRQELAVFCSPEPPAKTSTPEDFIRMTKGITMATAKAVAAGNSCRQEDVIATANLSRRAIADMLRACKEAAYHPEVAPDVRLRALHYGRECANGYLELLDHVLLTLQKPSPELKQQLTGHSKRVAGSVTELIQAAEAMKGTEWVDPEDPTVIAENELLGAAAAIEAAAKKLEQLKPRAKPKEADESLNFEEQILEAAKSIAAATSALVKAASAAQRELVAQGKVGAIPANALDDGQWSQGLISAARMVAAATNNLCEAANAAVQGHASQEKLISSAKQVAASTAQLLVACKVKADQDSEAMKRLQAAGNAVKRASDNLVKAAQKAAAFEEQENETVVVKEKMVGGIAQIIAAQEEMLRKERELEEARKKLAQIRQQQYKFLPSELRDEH

What was measured:
[1] = target: Atto643-labeled his6-β1 integrin cytoplasmic tail peptide (UniProt P05556); test: FRAP of the tethered partner on supported lipid bilayers (slowdown of diffusion); his6-β1 tails tethered on 5% PIP2, 5% PIP3 and 2.5% PIP2 + 2.5% PIP3 bilayers; 1 μM kindlin and 1 μM talin incubated together for 30 min, also after flush; both purified
[2] = target: Atto643-labeled his6-β1 integrin cytoplasmic tail peptide (UniProt P05556); test: FRAP of the tethered partner on supported lipid bilayers (slowdown of diffusion); his6-β1 tails tethered to DGS-NTA-Ni on 2.5% PIP2 + 2.5% PIP3 supported lipid bilayer; 1 μM kindlin or 1 μM talin, 30-min incubation; HEPES buffer pH 7.4, 150 mM KCl, 2.5 μM ZnCl2; both purified
[3] = target: Atto643-labeled his6-β1 integrin cytoplasmic tail peptide (UniProt P05556); test: FRAP of the tethered partner on supported lipid bilayers (slowdown of diffusion); his6-β1 tails tethered on 5% PIP2, 5% PIP3 and 2.5% PIP2 + 2.5% PIP3 bilayers; 0.1–2 μM kindlin or talin incubated individually for 30 min, then flushed with buffer; diffusion after flush against β1 tails alone; both purified

Measured: binding

His-tagged talin-1 (from UniProt Q9Y490 1-2541)
binds: all assays above

B1: Kindlin-2 (natural protein, UniProt Q96AC1 1-680, looked up)
chain: MALDGIRMPDGCYADGTWELSVHVTDLNRDVTLRVTGEVHIGGVMLKLVEKLDVKKDWSDHALWWEKKRTWLLKTHWTLDKYGIQADAKLQFTPQHKLLRLQLPNMKYVKVKVNFSDRVFKAVSDICKTFNIRHPEELSLLKKPRDPTKKKKKKLDDQSEDEALELEGPLITPGSGSIYSSPGLYSKTMTPTYDAHDGSPLSPTSAWFGDSALSEGNPGILAVSQPITSPEILAKMFKPQALLDKAKINQGWLDSSRSLMEQDVKENEALLLRFKYYSFFDLNPKYDAIRINQLYEQAKWAILLEEIECTEEEMMMFAALQYHINKLSIMTSENHLNNSDKEVDEVDAALSDLEITLEGGKTSTILGDITSIPELADYIKVFKPKKLTLKGYKQYWCTFKDTSISCYKSKEESSGTPAHQMNLRGCEVTPDVNISGQKFNIKLLIPVAEGMNEIWLRCDNEKQYAHWMAACRLASKGKTMADSSYNLEVQNILSFLKMQHLNPDPQLIPEQITTDITPECLVSPRYLKKYKNKQITARILEAHQNVAQMSLIEAKMRFIQAWQSLPEFGITHFIARFQGGKKEELIGIAYNRLIRMDASTGDAIKTWRFSNMKQWNVNWEIKMVTVEFADEVRLSFICTEVDCKVVHEFIGGYIFLSTRAKDQNESLDEEMFYKLTSGWV
notes: Kindlin-2; the species may be mouse there; source: E. coli (DE3) Rosetta 2, purified (Ni-NTA IMAC, SenP2 digest, size-exclusion chromatography); not shown: His-SUMO, N-terminal, cleaved
binds: all assays above
